Assay results as given in PubChem BioAssay AID2685 (National Center for Advancing Translational Sciences (NCATS), 2010).
The other results are listed elsewhere or left out. These are further read-outs of the screen, such as a control signal, another cell line or another target. No call is given for them. The list favours compounds with an active or inconclusive main result. Potencies come from curve fits of mixed quality, noted in brackets.

Assay: qHTS Assay for Lipid Storage Modulators in Drosophila S3 Cells;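 as to cell number change: cells counted by Cell Tracker Red CMTPX staining in the red channel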
Details: BODIPY lipid droplet fluorescence, 18-24 h; for cell number change: measured here: cell count max response, cells fed with added oleic acid
How it was run: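 Drosophila S3 cells loaded with oleic acid (400 uM, as added) and compounds at several concentrations; lipid droplets imaged by 488-nm laser-scanning cytometry, 500–530 nm intensity and object ratio to cell channel. Percent activity normalized to 20 uM Triacsin C.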

[1] = measured here: lipid fluorescence (Fed channel) AC50, cells fed with added oleic acid
[2] = measured here: cell number channel AC50, cells fed with added oleic acid

Row | SMILES | cell number change [%] | AC50 [1] | AC50 [2]
1 | CCN1CCN(C(=O)c2cc3cc4ccc(OC)cc4nc3s2)CC1 | 3.48 | 0.58 µM [falling, single point] | –
2 | CCOC(=O)c1cc(-c2ccc3c(c2)OCO3)nc2onc(C)c12 | – | 0.517 µM [rising, full curve] | 1.46 µM [rising, partial curve]
3 | Cc1ccc[n+](C(C)C(=O)Nc2ccc(C)c([N+](=O)[O-])c2)c1 (stereo not drawn) | 0.245 | 4.11 µM [falling, full curve, poor fit] | –
4 | Cc1cccc(N(C(=O)c2csnn2)C(C(=O)NCc2ccccc2)c2cccs2)c1 (stereo not drawn) | 21.2 | – | 0.461 µM [rising, partial curve, poor fit]
5 | CCOc1ccc(CCNC(=O)COC(=O)/C=C/c2cccc(OC)c2)cc1OCC | -74.5 | 0.461 µM [falling, full curve] | 10.3 µM [falling, partial curve]
6 | COc1ccc(NC(=O)CN(c2ccc(C)cc2)S(C)(=O)=O)c(OC)c1 | -11.6 | 0.0326 µM [falling, full curve, poor fit] | –
7 | CC1CCCCN1CC(=O)NC(=O)NCc1ccccc1 (stereo not drawn) | -58 | 29.1 µM [falling, single point] | 16.4 µM [falling, single point]
8 | COCCNC(=S)N/N=C(\C)c1ccc(C)c([N+](=O)[O-])c1 | 11.4 | 29.1 µM [rising, single point] | –
9 | Cc1cccc2sc(NC(=O)Cn3c(C)csc3=O)nc12 | 186 | – | 23.1 µM [rising, single point]
10 | Cc1ccc2c(c1)[C@H]1[C@H](CO2)[C@H](c2ccccc2)[C@]2(C)C(=O)N(Cc3ccc(Cl)cc3)CC(=O)N12 | 2.46 | 0.0058 µM [rising, full curve, poor fit] | –
11 | O=C(Cc1ccccc1)NCc1ccncc1 | 7.86 | – | –
12 | COC(=O)C(Cc1ccccc1)NC(=O)c1cc(=O)[nH]c2ccccc12 (stereo not drawn) | -1.85 | – | 0.116 µM [rising, single point]
13 | CCOC(=O)c1c[nH]c2nc(C)ccc2c1=O | -3.18 | – | –
14 | O=C(COc1ccc(F)cc1Cl)Nc1ccc(S(=O)(=O)Nc2nccs2)cc1 | 48 | 6.51 µM [rising, single point] | 11.6 µM [rising, partial curve]
15 | COCCN1Cc2c(sc(C)c2C)N(C(=O)c2ccccc2)C1 | 37.9 | 23.1 µM [rising, single point] | 16.4 µM [rising, partial curve]
16 | C#CC(CC)(CC)NC(=O)/C=C/C(=O)O | -57.1 | 29.1 µM [falling, single point] | 29.1 µM [falling, single point]
17 | COc1ccc(CNCC2COc3ccccc3O2)cc1 (stereo not drawn) | 17.7 | 29.1 µM [falling, single point] | –
18 | CCc1cccc(OC2OC(CO)C(O)C(O)C2NC(C)=O)c1 (stereo not drawn) | -46.8 | 1.16 µM [falling, full curve] | 5.17 µM [falling, full curve, poor fit]
19 | Cc1ccc(C(=O)N(Cc2nc(-c3ccc(C)cc3)no2)C(C)C)cc1 | -5.01 | 0.164 µM [falling, full curve, poor fit] | –
20 | NS(=O)(=O)c1ccc(CCNC(=O)C2CCCCC2)cc1 | -8.28 | 3.26 µM [falling, full curve] | 6.51 µM [falling, single point]
21 | CCN(CC)C(=O)C1CCCN(C(=O)c2cc(COc3ccc4ncccc4c3)on2)C1 (stereo not drawn) | -25.8 | 6.51 µM [rising, single point] | –
22 | CCOC(=O)c1c(/N=C/C2C(=O)CCCC2=O)sc(C)c1C | 10.5 | 25.9 µM [rising, single point] | –
23 | CCn1c(SCC(=O)Nc2ccc(Br)cn2)nnc1C1CC1 | 1.9 | 1.64 µM [rising, partial curve, poor fit] | –
24 | CC(C(=O)NC1CCCC1)N1CCN(S(=O)(=O)c2ccc(C(C)(C)C)cc2)CC1 (stereo not drawn) | 6.55 | 4.61 µM [rising, partial curve] | –
25 | O=C(CCSc1nc(-c2ccco2)cc(C(F)(F)F)n1)N1CCN(c2ccccc2)CC1 | 121 | 11.6 µM [rising, partial curve] | 9.2 µM [rising, partial curve]
26 | Cc1ccc[n+](CC(=O)c2ccc(Br)cc2)c1 | – | 6.51 µM [falling, single point] | –
27 | CCOC(=O)c1nc(NCc2cccnc2)c2ccccc2n1 | 16 | 4.11 µM [rising, single point] | 1.84 µM [rising, single point]
28 | COC(=O)C1CCN(C(=O)c2cc(-c3ccc(Cl)s3)nc3ccccc23)CC1 | -32.6 | 7.31 µM [falling, partial curve] | 0.00461 µM [falling, full curve, poor fit]

Just AC50 [1] and AC50 [2], for 4 of the compounds above:
Row | SMILES | AC50 [1] | AC50 [2]
3 | Cc1ccc[n+](C(C)C(=O)Nc2ccc(C)c([N+](=O)[O-])c2)c1 (stereo not drawn) | 4.11 µM [falling, full curve, poor fit] | –
9 | Cc1cccc2sc(NC(=O)Cn3c(C)csc3=O)nc12 | – | 23.1 µM [rising, single point]
14 | O=C(COc1ccc(F)cc1Cl)Nc1ccc(S(=O)(=O)Nc2nccs2)cc1 | 6.51 µM [rising, single point] | 11.6 µM [rising, partial curve]
26 | Cc1ccc[n+](CC(=O)c2ccc(Br)cc2)c1 | 6.51 µM [falling, single point] | –

Next part:

Row | SMILES | cell number change [%] | AC50 [1] | AC50 [2]
29 | CC(=O)Oc1ccc(/C=N/NC(=O)c2ccc(N(C)S(=O)(=O)c3ccccc3)cc2)cc1 | -15.8 | – | –
30 | CC(C)CN1C(Nc2ccccc2)=NC[C@@H]1C | 26.6 | 6.51 µM [rising, single point] | –
31 | On1c(-c2ccc(Cl)cc2)nc2ccccc21 | -28.2 | 0.13 µM [rising, full curve, poor fit] | –
32 | Nc1c(Cl)c(Cl)nc(C(=O)OCC(=O)NCc2ccccc2)c1Cl | -28.2 | 3.26 µM [falling, partial curve, poor fit] | –
33 | CC1(C)OC(c2ccccc2)=C/C(=C/C=N/NC(=O)c2ccncc2)O1 | -8.37 | – | –
34 | COCc1ccc(C(=O)NC2CC(C)(C)Cc3c2cnn3-c2ccc(OC)cc2)o1 (stereo not drawn) | -14.7 | 29.1 µM [rising, single point] | –
35 | Cn1cc(CN2CCN(Cc3ccc4c(c3)OCO4)CC2)c(-c2ccccc2F)n1 | 16.6 | 0.13 µM [rising, partial curve, poor fit] | –
36 | CC(C)(CCO)Nc1ncnc2onc(-c3ccc(F)cc3)c12 | 21.1 | – | –
37 | Cc1[nH]c2ccc(C(C)C)cc2c1CC(=O)O | -16 | 18.4 µM [falling, single point] | –
38 | COc1ccc(OC)c(S(=O)(=O)N/N=C(/C)c2ccc3c(c2)OCO3)c1 | -19.8 | 8.2 µM [rising, partial curve] | –
39 | CC(=O)Nc1cccc(NC(=O)CSc2nc3c(c(=O)n(C)c(=O)n3C)n2C)c1 | -5.13 | – | –
40 | COc1ccc(C(=O)NCC(=O)OCc2ccc(Cl)cc2Cl)cc1OC | 13.4 | 1.46 µM [rising, single point] | –
41 | CCC1(CC)Cc2ccccc2-c2nc(NCCO)[nH]c(=O)c21 | -48.8 | 29.1 µM [falling, single point] | 29.1 µM [falling, single point]
42 | Cc1nnc2c(NC(C)C)nc3ccccc3n12 | 34.7 | 14.6 µM [rising, partial curve, poor fit] | 6.51 µM [rising, partial curve]
43 | Nc1cc(Cl)nc(N/N=C/c2ccc([N+](=O)[O-])cc2)n1 | 14.2 | 1.03 µM [rising, full curve, poor fit] | –
44 | CCOCC(=O)Nc1ccc(-c2cn3cccnc3n2)cc1 | -143 | 29.1 µM [falling, single point] | 29.1 µM [falling, single point]
45 | CC(NC(=S)NCc1ccccc1)C12CC3CC(CC(C3)C1)C2 (stereo not drawn) | -11.2 | 16.4 µM [rising, single point] | –
46 | CC(C)(O)C#Cc1ccc([C@@H]2C[C@H]3CN(c4ccccc4)C(=O)[C@]34CCCN24)s1 | -5.43 | 0.517 µM [falling, single point] | –
47 | CCn1cc(C(=O)NCc2ccccc2)c(=O)c2cc(F)c(N3CCN(C(=O)c4ccco4)CC3)cc21 | -3.2 | 0.164 µM [falling, full curve, poor fit] | –
48 | COc1ccc(CCNC(=O)COc2ccc([N+](=O)[O-])cc2)cc1 | 100 | – | 3.66 µM [falling, partial curve]
49 | Cc1ccc(OCC(=O)N2CCN(C(=O)c3ccco3)CC2)cc1 | -40.6 | 3.26 µM [falling, full curve] | 4.11 µM [falling, full curve, poor fit]
50 | O=C(Nc1ccc2c(c1)OCO2)C1Cc2ccccc2CN1S(=O)(=O)c1cccs1 (stereo not drawn) | 17.7 | 2.06 µM [rising, full curve] | –
51 | CC(=O)C1=C(O)C(=O)N(CCc2ccccc2)C1c1ccccc1[N+](=O)[O-] (stereo not drawn) | – | 6.51 µM [falling, single point] | 0.082 µM [falling, full curve, poor fit]
52 | CCOC(=O)c1ccc(S(=O)(=O)NCC(c2ccc(N(C)C)cc2)c2c[nH]c3ccccc23)cc1 (stereo not drawn) | -50.8 | 11.6 µM [falling, partial curve, poor fit] | 16.4 µM [falling, partial curve]
53 | CC1CCc2sc3ncnc(N4CCN(CCO)CC4)c3c2C1 (stereo not drawn) | 5.84 | – | –
54 | O=C(O)c1cccc(NC(=S)NC(=O)c2ccc3ccccc3c2)c1 | -1.51 | 10.3 µM [falling, partial curve, poor fit] | –
55 | CN1CCN(C(=O)/C(=C\c2ccc3c(c2)OCO3)NC(=O)c2cccs2)CC1 | -55.5 | 2.91 µM [falling, partial curve] | 8.2 µM [falling, partial curve]
